{
  "source": "PubChem BioAssay AID2446",
  "about": "(Broad Institute, 2010)",
  "experiment": "PubChem AID 2446",
  "settings": "H4 cells, PrP 5'UTR luciferase reporter, luminescence; at 19.5 µM (top of the series)",
  "note": "The list shows a part of the results. Results with a measured potency or affinity are listed apart. The source made no clear call on entries shown without one.",
  "data": [
    {"molecule": "CN(C)c1nc(N)nc(CSc2nnnn2-c2cccc3ccccc23)n1", "values": [
      {"measurement": "activation", "result": -10.6, "unit": "%"}
    ]}
  ]
}
